For part of these data: A weaker result is weaker than the reference pair of the same experiment. For part of these data: Construct, isoform or probe ends are uncertain for at least one entry.
Experiments:
eIF4E (Homo sapiens) = eIF4E (Homo sapiens) (UniProt P06730); assay: competition with a labelled probe; conditions: displaced by low-nM DM15, high-uM eIF4E needed to displace DM15; 5' m7Gppp cap; Competition assays: 20 mM Tris pH 8, 150 mM NaCl, 10% glycerol, 1 mM DTT, 0.5 ug BSA, 0.5 ug tRNA, 30 min on ice, native gel; recombinant protein; residues 1-217; protein details: His6-MBP removed by TEV; label: 32P in cap
[1] = system: LARP1 DM15 Y883 mutant Y883A (Homo sapiens); assay: EMSA; conditions: 5' m7Gppp cap; recombinant protein; residues 796-946; label: 32P in cap
[2] = system: LARP1 DM15 (Homo sapiens); assay: EMSA; conditions: recombinant protein; residues 796-946; label: 5' 32P

By UniProt entry, the sequences of proteins in these tests, tags left out.
UniProt P06730, whole entry: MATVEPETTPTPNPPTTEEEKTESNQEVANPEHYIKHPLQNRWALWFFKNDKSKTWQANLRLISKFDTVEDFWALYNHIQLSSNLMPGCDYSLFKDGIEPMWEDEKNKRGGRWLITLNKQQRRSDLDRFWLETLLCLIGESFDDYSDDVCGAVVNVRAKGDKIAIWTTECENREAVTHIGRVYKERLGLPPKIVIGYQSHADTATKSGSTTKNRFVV

Sequence	binding result (eIF4E (Homo sapiens))	Kd [1] [µM]	binding result [2]
CCUCUUUUCCGUGGCGCCUCGGAGGCGUUCAGCUGCUUCAAG [m7Gppp-RPS6 42mer (capped TOP)]	binds more weakly	> 20	–
CUCUCUUCCUCGGCGCUGCCUACGGAGGUGGCAGCCAUCUCC [RPL32 42mer uncapped]	–	–	binds more weakly

— PMC5419741
